The values below come from paper PMC6921068.

The target of the experiment is GST-fusion protein containing the NHE-1 C-terminal peptide (83 aa). Nature of the experiment: far-Western, overlay or dot blot; GST-NHE-1 CP separated on 12% polyacrylamide gel and blotted onto nitrocellulose; blocked with 5% milk in PBS; incubated with 45 µg of rat colon tissue lysates for 4 h; detected with CA-selective antibodies; only the target purified.

Results are given in words; binding and its absence hold for the method and conditions named.

B1: carbonic anhydrase I (enzyme, UniProt B0BNN3 1-261)
chain: MASADWGYDSKNGPDQWSKLYPIANGNNQSPIDIKTSEAKHDSSLKPVSVSYNPATAKEIVNVGHSFHVVFDDSSNQSVLKGGPLADSYRLTQFHFHWGNSNDHGSEHTVDGAKYSGELHLVHWNSAKYSSAAEAISKADGLAIIGVLMKVGPANPNLQKVLDALSSVKTKGKRAPFTNFDPSSLLPSSLDYWTYFGSLTHPPLHESVTWVICKESISLSPEQLAQLRGLLSSAEGEPAVPVLSNHRPPQPLKGRTVRASF
Take B1: the binding entry is given as “no binding”.
